Data from patent US8664400B2, “Triphenylamine derivatives useful as fluorophores in biology, in particular for two-photon microscopy” (Centre National de la Recherche Scientifique, priority 2006, dated 2014).
For some assays here: For at least one compound, name, drawing or mass did not settle the structure. Some results were stated once for a whole list of compounds, not compound by compound.

What was measured:
[1] = comparison values; cited from earlier work
[2] = tested on: duplex DNA of 26 base pairs of self-complementary sequence (ds26); assay: Single-photon absorption and fluorescence emission in the presence of DNA; type: binding; details: aqueous medium with DNA
[3] = Aggregation in aqueous solution (Beer-Lambert law); type: physicochemical

| Compound | efficient two-photon absorption section of comparison fluorophores [1] | maximum emission of fluorescence [2] | concentration up to which aqueous solutions follow the Beer-Lambert law [3] |
| --- | --- | --- | --- |
| O=C1OC2(c3ccc(O)cc3Oc3cc(O)ccc32)c2ccccc21 [fluorescein] | 38 GM | – | – |
| C[n+]1ccc(C=Cc2ccc(N(c3ccccc3)c3ccc(C=Cc4cc[n+](C)cc4)cc3)cc2)cc1.[I-].[I-] [TP-2Py, Bis[4-(2-N-methylpyridinium-4-ylvinyl)phenyl]phenylamine iodide] | – | 660-680 nm | ≥ 50 µM |
| C[n+]1ccc(C=Cc2ccc(N(c3ccc(C=Cc4cc[n+](C)cc4)cc3)c3ccc(C=Cc4cc[n+](C)cc4)cc3)cc2)cc1.[I-].[I-].[I-] [TP-3Py, Tris[4-(2-N-methylpyridinium-4-ylvinyl)phenyl]amine iodide] | – | 660-680 nm | ≥ 50 µM |
